Source: patent publication US12532661B2, “Compound and organic light emitting device comprising the same” (LG Chem, Ltd., priority 2020, dated 2026)

Assay: Organic light emitting device evaluation with the compound as dopant of the light emitting layer
Conditions: for Driving voltage (V @ 10 mA/cm^2): device with compound as dopant (2:98 with host Compound D), current 10 mA/cm^2; for EQE (% @ 10 mA/cm^2): external quantum efficiency, device with compound as dopant; for Lifetime (hr) (T90 @ 500 nit): time for luminance to fall to 90% of initial luminance (500 nit); for EQE (% @ 10 mA/cm^2) / Lifetime (hr) (T90 @ 500 nit): 10 mA/cm^2

SMILES	Driving voltage (V @ 10 mA/cm^2) [V]	EQE (% @ 10 mA/cm^2) [%]	Lifetime (hr) (T90 @ 500 nit) [h]
Cc1cccc(N(c2ccc3c4c5ccc6c(c5ccc4n(-c4ccccc4)c3c2)c2ccc(N(c3cccc(C)c3)c3cccc4c3oc3ccccc34)cc2n6-c2ccccc2)c2cccc3c2oc2ccccc23)c1 [Compound F, reference compound]	4.70	6.87	58
Cc1cccc(N(c2cccc3c2oc2ccccc23)c2cccc3c2c2c4ccc5c(c4ccc2n3-c2ccccc2)c2c(N(c3cccc4c3c3c6ccc7c(c6ccc3n4-c3ccccc3)c3c(N(c4cccc(C)c4)c4cccc6c4oc4ccccc46)cccc3n7-c3ccccc3)c3cccc4c3c3c6ccc7c(c6ccc3n4-c3ccccc3)c3c(N(c4cccc(C)c4)c4cccc6c4oc4ccccc46)cccc3n7-c3ccccc3)cccc2n5-c2ccccc2)c1 [Compound 19]	4.59	8.79	219
Cc1cccc(N(c2ccc3c4c5ccc6c(c5ccc4n(-c4ccccc4)c3c2)c2ccc(Oc3ccc(-c4cc(-c5ccc(Oc7ccc8c9c%10ccc%11c(c%10ccc9n(-c9ccccc9)c8c7)c7ccc(N(c8cccc(C)c8)c8cccc9c8oc8ccccc89)cc7n%11-c7ccccc7)cc5)cc(-c5ccc(Oc7ccc8c9c%10ccc%11c(c%10ccc9n(-c9ccccc9)c8c7)c7ccc(N(c8cccc(C)c8)c8cccc9c8oc8ccccc89)cc7n%11-c7ccccc7)cc5)c4)cc3)cc2n6-c2ccccc2)c2cccc3c2oc2ccccc23)c1 [Compound 16]	4.69	8.71	219
Cc1cccc(N(c2ccc3c4c5ccc6c(c5ccc4n(-c4ccccc4)c3c2)c2ccc(N(c3ccc4c5c7ccc8c(c7ccc5n(-c5ccccc5)c4c3)c3ccc(N(c4cccc(C)c4)c4cccc5c4oc4ccccc45)cc3n8-c3ccccc3)c3ccc4c5c7ccc8c(c7ccc5n(-c5ccccc5)c4c3)c3ccc(N(c4cccc(C)c4)c4cccc5c4oc4ccccc45)cc3n8-c3ccccc3)cc2n6-c2ccccc2)c2cccc3c2oc2ccccc23)c1 [Compound 1]	4.68	8.76	220
Cc1cccc(N(c2ccc3c4c5ccc6c(c5ccc4n(-c4ccccc4)c3c2)c2ccc(Oc3cc(Oc4ccc5c7c8ccc9c(c8ccc7n(-c7ccccc7)c5c4)c4ccc(N(c5cccc(C)c5)c5cccc7c5oc5ccccc57)cc4n9-c4ccccc4)cc(Oc4ccc5c7c8ccc9c(c8ccc7n(-c7ccccc7)c5c4)c4ccc(N(c5cccc(C)c5)c5cccc7c5oc5ccccc57)cc4n9-c4ccccc4)c3)cc2n6-c2ccccc2)c2cccc3c2oc2ccccc23)c1 [Compound 14]	4.63	8.70	215
CC(C)(C)c1ccc(N(c2ccc(C(C)(C)C)cc2)c2ccc3c4c5ccc6c(c5ccc4n(-c4ccccc4)c3c2)c2ccc(N(c3ccc(C(C)(C)C)cc3)c3cc(N(c4ccc(C(C)(C)C)cc4)c4ccc5c7c8ccc9c(c8ccc7n(-c7ccccc7)c5c4)c4ccc(N(c5ccc(C(C)(C)C)cc5)c5ccc(C(C)(C)C)cc5)cc4n9-c4ccccc4)cc(N(c4ccc(C(C)(C)C)cc4)c4ccc5c7c8ccc9c(c8ccc7n(-c7ccccc7)c5c4)c4ccc(N(c5ccc(C(C)(C)C)cc5)c5ccc(C(C)(C)C)cc5)cc4n9-c4ccccc4)c3)cc2n6-c2ccccc2)cc1 [Compound 12]	4.59	8.64	218
CC(C)(C)c1ccc(N(c2ccc(C(C)(C)C)cc2)c2ccc3c4c5ccc6c(c5ccc4n(-c4ccccc4)c3c2)c2ccc(-c3cc(-c4ccc5c7c8ccc9c(c8ccc7n(-c7ccccc7)c5c4)c4ccc(N(c5ccc(C(C)(C)C)cc5)c5ccc(C(C)(C)C)cc5)cc4n9-c4ccccc4)cc(-c4ccc5c7c8ccc9c(c8ccc7n(-c7ccccc7)c5c4)c4ccc(N(c5ccc(C(C)(C)C)cc5)c5ccc(C(C)(C)C)cc5)cc4n9-c4ccccc4)c3)cc2n6-c2ccccc2)cc1 [Compound 5]	4.69	8.69	219
c1ccc(-n2c3ccccc3c3cc(-c4ccc(N(c5ccc6ccccc6c5)c5ccc6c7c8ccc9c(c8ccc7n(-c7ccccc7)c6c5)c5ccc(N(c6ccc(-c7ccc8c(c7)c7ccccc7n8-c7ccccc7)cc6)c6ccc7ccccc7c6)cc5n9-c5ccccc5)cc4)ccc32)cc1 [Compound H, reference compound]	4.66	7.11	67
Cc1cccc(N(c2ccc3c4c5ccc6c(c5ccc4n(-c4ccccc4)c3c2)c2ccc(-c3cc(-c4ccc5c7c8ccc9c(c8ccc7n(-c7ccccc7)c5c4)c4ccc(N(c5cccc(C)c5)c5cccc7c5oc5ccccc57)cc4n9-c4ccccc4)cc(-c4ccc5c7c8ccc9c(c8ccc7n(-c7ccccc7)c5c4)c4ccc(N(c5cccc(C)c5)c5cccc7c5oc5ccccc57)cc4n9-c4ccccc4)c3)cc2n6-c2ccccc2)c2cccc3c2oc2ccccc23)c1 [Compound 4]	4.63	8.73	213
CC(C)(C)c1ccc(N(c2ccc(C(C)(C)C)cc2)c2ccc3c4c5ccc6c(c5ccc4n(-c4ccccc4)c3c2)c2ccc(N(c3ccc(C(C)(C)C)cc3)c3ccc(C(C)(C)C)cc3)cc2n6-c2ccccc2)cc1 [Compound G, reference compound]	4.68	7.11	67
c1ccc(-n2c3ccccc3c3cc(-c4ccc(N(c5ccc6ccccc6c5)c5ccc6c7c8ccc9c(c8ccc7n(-c7ccccc7)c6c5)c5ccc(N(c6ccc7c8c%10ccc%11c(c%10ccc8n(-c8ccccc8)c7c6)c6ccc(N(c7ccc(-c8ccc%10c(c8)c8ccccc8n%10-c8ccccc8)cc7)c7ccc8ccccc8c7)cc6n%11-c6ccccc6)c6ccc7c8c%10ccc%11c(c%10ccc8n(-c8ccccc8)c7c6)c6ccc(N(c7ccc(-c8ccc%10c(c8)c8ccccc8n%10-c8ccccc8)cc7)c7ccc8ccccc8c7)cc6n%11-c6ccccc6)cc5n9-c5ccccc5)cc4)ccc32)cc1 [Compound 3]	4.67	8.71	207
Cc1cccc(N(c2ccc3c4c5ccc6c(c5ccc4n(-c4ccccc4)c3c2)c2ccc(Oc3cccc(-c4cc(-c5cccc(Oc7ccc8c9c%10ccc%11c(c%10ccc9n(-c9ccccc9)c8c7)c7ccc(N(c8cccc(C)c8)c8cccc9c8oc8ccccc89)cc7n%11-c7ccccc7)c5)cc(-c5cccc(Oc7ccc8c9c%10ccc%11c(c%10ccc9n(-c9ccccc9)c8c7)c7ccc(N(c8cccc(C)c8)c8cccc9c8oc8ccccc89)cc7n%11-c7ccccc7)c5)c4)c3)cc2n6-c2ccccc2)c2cccc3c2oc2ccccc23)c1 [Compound 15]	4.68	8.75	222
Cc1cccc(N(c2ccc3c(c2)c2c4ccc5c(c4ccc2n3-c2ccccc2)c2cc(N(c3ccc4c(c3)c3c6ccc7c(c6ccc3n4-c3ccccc3)c3cc(N(c4cccc(C)c4)c4cccc6c4oc4ccccc46)ccc3n7-c3ccccc3)c3ccc4c(c3)c3c6ccc7c(c6ccc3n4-c3ccccc3)c3cc(N(c4cccc(C)c4)c4cccc6c4oc4ccccc46)ccc3n7-c3ccccc3)ccc2n5-c2ccccc2)c2cccc3c2oc2ccccc23)c1 [Compound 17]	4.58	8.74	224
